Experimental data as given in US20190194755.
For at least one entry, the source does not settle the construct or the ends of the probe. For some of these results: Negatives hold for the conditions tested.

Chains of the proteins cited; added tags and fusions are not shown. Lines headed by an entry give the natural chain unless they say otherwise; changes in a name come on top.
UniProt P15840: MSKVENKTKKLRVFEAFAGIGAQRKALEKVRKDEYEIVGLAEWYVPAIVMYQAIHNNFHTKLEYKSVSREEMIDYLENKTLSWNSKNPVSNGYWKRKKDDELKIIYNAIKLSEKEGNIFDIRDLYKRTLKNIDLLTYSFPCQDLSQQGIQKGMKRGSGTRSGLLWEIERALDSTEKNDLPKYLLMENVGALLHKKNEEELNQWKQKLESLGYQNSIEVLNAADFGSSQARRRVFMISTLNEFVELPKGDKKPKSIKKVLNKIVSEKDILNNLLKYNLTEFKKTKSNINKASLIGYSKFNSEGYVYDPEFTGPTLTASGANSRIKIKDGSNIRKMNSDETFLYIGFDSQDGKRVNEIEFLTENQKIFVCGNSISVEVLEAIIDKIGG
UniProt P14385: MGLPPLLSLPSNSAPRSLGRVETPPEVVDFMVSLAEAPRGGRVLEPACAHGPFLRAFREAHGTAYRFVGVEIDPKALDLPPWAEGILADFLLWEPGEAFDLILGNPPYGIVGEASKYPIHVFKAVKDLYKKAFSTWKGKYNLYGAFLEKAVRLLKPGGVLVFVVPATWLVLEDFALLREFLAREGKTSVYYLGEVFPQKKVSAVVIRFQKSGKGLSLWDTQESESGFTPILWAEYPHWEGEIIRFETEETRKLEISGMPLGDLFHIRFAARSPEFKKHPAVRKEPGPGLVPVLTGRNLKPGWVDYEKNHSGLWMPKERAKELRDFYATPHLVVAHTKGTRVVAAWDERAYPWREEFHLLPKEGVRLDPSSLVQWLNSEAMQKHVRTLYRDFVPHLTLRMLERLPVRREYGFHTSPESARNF

Tests used:
[1] = target: M.SssI CpG methyltransferase (UniProt P15840); assay: activity assay; conditions: CpG methylation; DNA protected from HpaII (data not shown); purified recombinant protein; only the motif is given
[2] = target: M.SssI CpG methyltransferase (Q142A/N370A) (UniProt P15840); assay: binding assay; conditions: AdoYnAzide cofactor then fluorophore attachment; more label in CLL DNA; purified recombinant protein; only the motif is given
[3] = target: M.TaqI DNA adenine methyltransferase (UniProt P14385); assay: binding assay; conditions: purified recombinant protein, only the motif is given

Q: For “CG (double strand) [D4Z4 BAC CH16-291A23, CpG sites]”, which “activity on this sequence” value [1] is on record?
A: active

Q: Does “CG (double strand) [human PBMC genomic DNA, unmethylated CpG]” bind [2]?
A: binds

Q: Does “TCGA (double strand) [CpG-methylated D4Z4 BAC, M.TaqI site]” bind ([3]; 5mC at CpG (M.SssI pre-methylated), no label when CpG in TCGA methylated)?
A: no binding

Q: Does “TCGA (double strand) [unmethylated D4Z4 BAC CH16-291A23, M.TaqI site]” bind ([3]; TAMRA transfer from AdoYnTAMRA, 10 mM Mg, 60 C, labels at expected sites)?
A: binds
